Test results published in PubChem BioAssay AID651768 (National Center for Advancing Translational Sciences (NCATS), 2012).
The campaign covered roughly 360,000 compounds. About 1,700 (0.47%) were called active. Inconclusive results, whose numbers are uncertain, are shown with a selection of clear calls. Calls come from the whole dose curve; as a rule, active = well fitted inhibition curve with a large enough effect; inconclusive = small, poorly fitted or top-dose-only effect; inactive = no such curve, though single readings can be large or run the other way. Where the call is inconclusive, the potency comes from a doubtful curve fit.

Protein sequences, listed by entry. Tags and fused reporters are not part of them.
UniProt Q14191, whole entry, looked up: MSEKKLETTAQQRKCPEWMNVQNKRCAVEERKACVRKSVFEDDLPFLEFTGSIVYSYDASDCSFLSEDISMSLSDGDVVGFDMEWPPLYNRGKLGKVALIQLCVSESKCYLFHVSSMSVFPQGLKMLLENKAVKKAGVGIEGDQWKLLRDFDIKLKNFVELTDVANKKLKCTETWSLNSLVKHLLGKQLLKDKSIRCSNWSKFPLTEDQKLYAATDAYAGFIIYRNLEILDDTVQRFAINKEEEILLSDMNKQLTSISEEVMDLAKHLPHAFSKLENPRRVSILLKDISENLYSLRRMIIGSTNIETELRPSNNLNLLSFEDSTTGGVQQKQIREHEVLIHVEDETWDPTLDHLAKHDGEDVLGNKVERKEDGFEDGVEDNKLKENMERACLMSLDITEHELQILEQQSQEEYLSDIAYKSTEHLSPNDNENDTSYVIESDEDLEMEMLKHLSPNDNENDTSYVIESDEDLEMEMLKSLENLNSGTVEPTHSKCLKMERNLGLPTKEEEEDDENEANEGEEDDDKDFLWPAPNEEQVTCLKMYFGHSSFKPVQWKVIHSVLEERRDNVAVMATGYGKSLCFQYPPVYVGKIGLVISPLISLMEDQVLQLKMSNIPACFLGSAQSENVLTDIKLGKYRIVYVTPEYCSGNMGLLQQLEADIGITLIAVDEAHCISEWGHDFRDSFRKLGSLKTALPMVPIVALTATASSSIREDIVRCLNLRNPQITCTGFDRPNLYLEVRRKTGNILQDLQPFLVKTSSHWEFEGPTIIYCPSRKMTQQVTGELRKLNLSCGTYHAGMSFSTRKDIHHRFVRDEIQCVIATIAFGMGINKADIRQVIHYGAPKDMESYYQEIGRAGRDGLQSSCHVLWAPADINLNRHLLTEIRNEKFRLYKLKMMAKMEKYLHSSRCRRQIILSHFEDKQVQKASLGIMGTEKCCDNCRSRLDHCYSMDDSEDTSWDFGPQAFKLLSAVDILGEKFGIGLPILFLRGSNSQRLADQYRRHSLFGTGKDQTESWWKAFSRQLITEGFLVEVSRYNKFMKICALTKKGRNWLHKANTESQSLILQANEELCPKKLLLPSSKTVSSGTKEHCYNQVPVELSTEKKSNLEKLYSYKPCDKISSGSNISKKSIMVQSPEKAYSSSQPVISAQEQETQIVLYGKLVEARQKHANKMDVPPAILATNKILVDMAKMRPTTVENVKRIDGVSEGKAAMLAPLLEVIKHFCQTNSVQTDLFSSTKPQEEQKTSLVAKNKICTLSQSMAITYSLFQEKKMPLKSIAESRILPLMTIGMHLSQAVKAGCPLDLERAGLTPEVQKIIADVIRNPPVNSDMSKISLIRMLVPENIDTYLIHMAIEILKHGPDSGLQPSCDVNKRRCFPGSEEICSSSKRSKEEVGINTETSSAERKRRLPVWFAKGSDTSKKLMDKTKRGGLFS

The molecules below were run against Bifunctional 3'-5' exonuclease/ATP-dependent helicase WRN (Homo sapiens) (UniProt Q14191) (assay: qHTS for Inhibitors of WRN Helicase). Details: WRN helicase unwinding, fluorescent forked duplex, kinetic; activity change, negative = inhibition: at 114 µM (top of the series) unless noted.
How it was run: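 Screening of the MLSMR collection measured strand separation of a quenched forked DNA duplex (100 nM) by 20 nM WRN with 2 mM ATP, all final. Compounds were preincubated with enzyme 15 min at room temperature.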
% is set by controls: 0 for no effect and ±100 for the full control effect; potency is the fitted concentration of half-maximal effect.
Note: nearly all actives have a fitted effect of over 55% in size.

| Compound | Potency | activity change, negative = inhibition |
| --- | --- | --- |
| CC1=NN(c2ccc(Cl)c(C(=O)O)c2)C(=O)/C1=C\c1ccc(-c2ccc(C(=O)O)cc2)o1 | inconclusive: 17.8 µM [inhibitor, full curve] |  |
| O=C1C(c2ccccc2)=[N+]([O-])c2ccccc21 | active: 70.8 µM |  |
| Cc1nc(SCC(=O)c2ccccc2)c(C#N)c(-c2ccco2)c1C(=O)NCc1ccco1 | inconclusive: 50.1 µM [inhibitor, partial curve] |  |
| CCC(COC)Oc1cc(NCc2ccccc2)c2ncn(C(C)C)c2c1 (centres undefined) | inconclusive: 89.1 µM [inhibitor, single point] |  |
| COc1ccc(-c2csc(NC(=O)CN3C(=O)CCC3=O)n2)cc1OC |  | inactive: -2.44% |
| CCOC(=O)c1sc(NC(=O)c2ccc3nc[nH]c3c2)nc1C | inconclusive: 79.4 µM [inhibitor, single point] |  |
| Cc1nn(-c2ccc(F)cc2)c(Cl)c1C(=O)OC(C)C(=O)N(C)C1CCCCC1 (centres undefined) |  | inactive: -3.7% |
| Cc1oc(-c2cccs2)nc1CNC[C@H]1O[C@@H](n2cnc3c(N)ncnc32)[C@H](O)[C@@H]1O |  | inactive: 4.17% |
| CC1=NN(c2ccc(C)cc2)C(=O)/C1=C/c1ccc(-c2cc([N+](=O)[O-])ccc2O)o1 | inconclusive: 56.2 µM [inhibitor, partial curve] |  |
| O=C(NCc1ccco1)c1ccc([N+](=O)[O-])o1 | inconclusive: 50.1 µM [inhibitor, partial curve] |  |
| Cc1ccc(C(c2c(O)nc3n(c2=O)CCS3)c2c(O)nc3n(c2=O)CCS3)cc1 | inconclusive: 39.8 µM [inhibitor, single point] |  |
| CN1CCN(NS(=O)(=O)c2ccc(Cl)s2)CC1 | inconclusive: 56.2 µM [inhibitor, partial curve, poor fit] |  |
| COc1ccc(N2CCN(C3CCCN(Cc4ccc(F)cc4Cl)C3)CC2)cc1 (centres undefined) |  | inactive: -0.113% |
| O=C(Nc1ccc(Br)cn1)c1ccc2nccnc2c1 | inconclusive: 79.4 µM [inhibitor, partial curve] |  |
| COc1ccc(-n2c(SCC(=O)Nc3ccccc3OC)nc(O)cc2=O)cc1 | inconclusive: 8.91 µM [inhibitor, full curve, poor fit] |  |
| CC[N+](CC)(CC)CCCCOc1ccc2c(c1)C(=O)c1cc(OCCCC[N+](CC)(CC)CC)ccc1-2 | active: 50.1 µM |  |
| COC(=O)c1cc(-c2ccc(C)o2)nc2ccccc12 | inconclusive: 89.1 µM [inhibitor, partial curve, poor fit] |  |
| CC1=NN(S(=O)(=O)c2ccc(Cl)cc2Cl)C(=O)c2ccccc2O1 |  | inactive: -9.87% |
| N#Cc1ccccc1OCC(=O)NNC(=O)CCNC(=O)c1ccccc1 | inconclusive: 35.5 µM [inhibitor, partial curve] |  |
| O=C(NCc1ccco1)C1Cc2ccccc2CN1S(=O)(=O)c1ccccc1F (centres undefined) | inconclusive: 56.2 µM [inhibitor, partial curve] |  |
| C=CC(=O)Nc1cccc(Oc2ccnc3[nH]ccc23)c1 | inconclusive: 39.8 µM [inhibitor, partial curve, poor fit] |  |
| COc1ccccc1N1CCN(C(=S)Nc2ccc(F)cc2)CC1 | inconclusive: 14.1 µM [inhibitor, partial curve] |  |
| CCc1ccc(OCC(=O)NNC(=O)CSc2ncnc3sc(C)c(C)c23)cc1 | inconclusive: 100 µM [inhibitor, single point] |  |

| Compound | Potency | activity change, negative = inhibition |
| --- | --- | --- |
| COCCCn1c(-c2cccc(Cl)c2)nc2c1c(=O)[nH]c(=O)n2Cc1ccccc1 | inconclusive: 89.1 µM [inhibitor, single point] |  |
| Nc1[nH]n2c(=O)cc(-c3ccccc3)nc2c1N=Nc1ccccc1 |  | inactive: -19% |
| O=C1Nc2ccccc2SC(c2ccccc2)C1O (centres undefined) | inconclusive: 31.6 µM [inhibitor, partial curve] |  |
| COc1cc(/C=C2\C(=O)ON=C2c2ccccc2)cc(Cl)c1O | inconclusive: 50.1 µM [inhibitor, partial curve] |  |
| Cc1ccc(S(=O)(=O)N2CC=C(c3c(C)n(C)c4ccccc34)CC2)cc1 | active: 79.4 µM |  |
| Cc1nnc(SCC2=C(C(=O)O)N3C(=O)C(NC(=O)Cn4ncc(Cl)c4C)C3SC2)s1 (centres undefined) |  | inactive: -12.2% [at 11.6 µM] |
| C=CCN(C(=O)CCC(=O)Nc1cc(C)on1)C(C(=O)NC1CCCC1)c1ccc(CC)cc1 (centres undefined) |  | inactive: 5.9% |
| O=C(CN1CCN(S(=O)(=O)/C=C/c2ccccc2)CC1)NC(=O)NCc1ccco1 | inconclusive: 50.1 µM [inhibitor, partial curve] |  |
| CCOC(=O)C1CCN(C(=O)COC(=O)c2cc([N+](=O)[O-])ccc2N2CCOCC2)CC1 |  | inactive: -0.73% |
| O=C1C(Cl)=C(NC(=O)c2ccccc2)C(=O)C(Cl)=C1NC(=O)c1ccccc1 | active: 20 µM |  |
| COc1ccccc1OCCNC(=O)c1ccccc1OCc1c(C)noc1C |  | inactive: 3.74% |
| Cc1ccc(OCC(=O)Nc2cc(C(=O)O)cc(C(=O)O)c2)cc1C | active: 79.4 µM |  |
| CN1C(=O)c2cccc3c(S(=O)(=O)Nc4ccc(O)c(C(=O)O)c4)ccc1c23 | inconclusive: 12.6 µM [inhibitor, full curve, poor fit] |  |
| Cc1c(CCC(=O)O)c(=O)oc2cc3occ(-c4ccccc4)c3cc12 | inconclusive: 31.6 µM [inhibitor, partial curve] |  |
| COc1cccc(OCC(O)CN2CCN(C)CC2)c1 (centres undefined) | inconclusive: 15.8 µM [inhibitor, full curve] |  |
| CCOc1cc(/C=C2\C(=O)ON=C2c2ccccc2)cc(Br)c1O | inconclusive: 39.8 µM [inhibitor, partial curve] |  |
| O=S(=O)(Cc1ccccc1)N(O)c1ccccc1 | inconclusive: 35.5 µM [inhibitor, partial curve] |  |
| CN(C(=O)c1ccccc1)c1nccnc1C#N | inconclusive: 8.91 µM [inhibitor, full curve] |  |
| CCOc1ccc(N=C2NC(=O)S/C2=C\c2ccc(N(C)C)cc2)cc1 | inconclusive: 89.1 µM [inhibitor, single point] |  |
| COC(=O)c1nn2c(C(F)(F)F)cc(-c3ccc(Br)o3)nc2c1Br | inconclusive: 63.1 µM [inhibitor, partial curve, poor fit] |  |
| CC(C)CCN1C(=O)c2ccc(C(=O)Nc3cc(C(=O)O)cc(C(=O)O)c3)cc2C1=O |  | inactive: -7.04% |
| CCCCNC(=O)CSc1nc2ccccc2c(=O)n1CCNC(C)=O |  | inactive: 3.27% |
| COc1cc(OC)cc(C(=O)NCC(=O)OCC(=O)N2c3ccccc3NC(=O)C2(C)C)c1 |  | inactive: -0.0605% |

Part of the list above in another layout:
Compound	Potency	activity change, negative = inhibition
Nc1[nH]n2c(=O)cc(-c3ccccc3)nc2c1N=Nc1ccccc1		inactive: -19%
CN1C(=O)c2cccc3c(S(=O)(=O)Nc4ccc(O)c(C(=O)O)c4)ccc1c23	inconclusive: 12.6 µM [inhibitor, full curve, poor fit]	
COC(=O)c1nn2c(C(F)(F)F)cc(-c3ccc(Br)o3)nc2c1Br	inconclusive: 63.1 µM [inhibitor, partial curve, poor fit]	
CCCCNC(=O)CSc1nc2ccccc2c(=O)n1CCNC(C)=O		inactive: 3.27%
COc1cc(OC)cc(C(=O)NCC(=O)OCC(=O)N2c3ccccc3NC(=O)C2(C)C)c1		inactive: -0.0605%

Following part.

| Compound | Potency | activity change, negative = inhibition |
| --- | --- | --- |
| COC(=O)c1sc(N2C(=O)C(O)=C(C(=O)c3ccc(C)o3)C2c2ccco2)nc1C (centres undefined) | inconclusive: 35.5 µM [inhibitor, partial curve] |  |
| ClN=C1C=CC=CC1=NCl | inconclusive: 56.2 µM [inhibitor, partial curve] |  |
| CC1CCCCC1NC(=O)COC(=O)c1c2c(nc3ccccc13)/C(=C/c1ccco1)CC2 (centres undefined) | inconclusive: 50.1 µM [inhibitor, partial curve] |  |
| O=C(CC1SC(=O)N(c2ccccc2)C1=O)Nc1ccc(Cl)cc1 (centres undefined) | active: 25.1 µM |  |
| O=C(c1cnn(C(=O)COc2ccc(Cl)cc2)c1)c1ccccc1O | inconclusive: 44.7 µM [inhibitor, partial curve] |  |
| COc1ccccc1C(=O)N1CCN(Cc2cccnc2)CC1 | inconclusive: 25.1 µM [inhibitor, full curve, poor fit] |  |
| O=[N+]([O-])c1cc(C(F)(F)F)ccc1NCCCCNS(=O)(=O)c1ccc(Cl)cc1 | inconclusive: 8.91 µM [inhibitor, partial curve] |  |
| Cc1sc2ncnc(SCC(=O)N3CCCC3)c2c1C |  | inactive: 8.62% |
| O=c1cc(O)c2c(=O)n(Cc3ccccc3)c3ccccc3c2o1 | inconclusive: 79.4 µM [inhibitor, partial curve] |  |
| C=CC[C@H]1C=C[C@@H](C(C(=O)OC)C(=O)OC)CN1C(C)=O |  | inactive: 6.08% |
| O=C(COC(=O)c1cc2c(s1)CCC2)Nc1ccc(F)cc1 | inconclusive: 44.7 µM [inhibitor, partial curve] |  |
| COc1cccc(C(=O)c2cn(CC(=O)NCc3ccco3)c3nc(C)ccc3c2=O)c1 | inconclusive: 56.2 µM [inhibitor, partial curve] |  |
| CCn1c(C)nc2cc(C(=O)N/N=C/c3ccc(O)c(O)c3O)ccc21 | active: 17.8 µM |  |
| Cc1ccc(N2C(=O)N(CC(=O)N3c4ccccc4CC3C)C(=O)C2C)cc1 (centres undefined) |  | inactive: 4.51% |
| O=C(O)c1ccc(/C=N/NC(=O)c2cc(-c3ccc4c5c(cccc35)CC4)n[nH]2)cc1 | inconclusive: 50.1 µM [inhibitor, partial curve] |  |
| COc1cc(/C=N/NC(=O)CCn2c3ccccc3c3ccccc32)ccc1O |  | inactive: -25.2% |
| COC(=O)C1=C(C)N(CCc2ccccc2)C(=O)/C1=C\c1ccco1 |  | inactive: -4.13% |
| CC[N+]1=C(C)C(C)(C)c2cc(C)ccc21 | inconclusive: 3.55 µM [inhibitor, full curve, poor fit] |  |
| O=C(COC(=O)c1ccc(F)cc1F)Nc1ncccn1 | inconclusive: 50.1 µM [inhibitor, partial curve] |  |
| Cc1ccc(S(=O)(=O)N(C)c2ccccc2C(=O)Nc2ccc(F)cc2F)cc1 |  | inactive: -6.31% |
| O=C(CN1C(=O)c2ccccc2S1(=O)=O)Nc1ncc(Cl)cc1Cl | inconclusive: 44.7 µM [inhibitor, partial curve] |  |
| O=C(OCc1ccccc1)/C(=C/c1cccc(Br)c1)NC(=O)c1ccco1 | inconclusive: 79.4 µM [inhibitor, single point] |  |
| c1ccc(CN2CCN(C3CCCSc4ccccc43)CC2)cc1 (centres undefined) | inconclusive: 10 µM [inhibitor, full curve] |  |
